PubChem BioAssay AID651640 (Broad Institute, 2012)
About 6,000 (1.7%) of roughly 350,000 compounds were called active. Inconclusive results, whose numbers are uncertain, are shown with a selection of clear calls. Cut-off read from the data, not from the text of the source: active = CPE inhibition above about 20% (passing the limit was not always enough); inconclusive = no clear call, values can overlap the other calls; tested in BHK-21 cells.

Test: protection of cells from dengue 2 killing – plate reader, single concentration, primary screen (AID 651640);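 note: 0% = median of neutral control wells and 100% = median of positive control wells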
Details: DENV2-infected cells, cytopathic effect rescue, at 9.99 µM, hits give high values

Question: For `CC1CCCN(C(=O)C2CCN(c3nc(-c4ccccc4)nc4c3CCC4)CC2)C1` (stereo not given), which CPE inhibition is on record?
Answer: inconclusive: 21%

Question: With `Nc1ncnc2c1ncn2[C@@H]1O[C@H](CNS(=O)(=O)CCCCl)[C@@H](O)[C@H]1O` as the compound, how does the CPE inhibition read?
Answer: inconclusive: 34.3%

Question: For `C[C@H]1CCCCO[C@H](CN(C)C(=O)Cc2ccccc2)[C@@H](C)CN([C@@H](C)CO)C(=O)c2cc(NC(=O)c3ccccc3)ccc2O1`, which CPE inhibition is on record?
Answer: inactive: -1.36%

Question: Which CPE inhibition does the source give for `CC(Oc1ccc2c3c(c(=O)oc2c1)CCC3)C(=O)NCC1CCC(C(=O)O)CC1` (stereo not given) here?
Answer: inconclusive: 65.7%

Question: With `O[C@@H]1CN(Cc2cccs2)[C@@H](c2ccccc2)C[C@H]1n1cc(C2CC2)nn1` as the compound, how does the CPE inhibition read?
Answer: inconclusive: 25.7%

Question: Which CPE inhibition does the source give for `N#CC1(NC(=O)CSc2nnc3n2CCCCC3)CCCCC1` here?
Answer: inconclusive: 23.7%

Question: With `CCOC(=O)[C@]12CCCC=C1N(Cc1cccc3ccccc13)C(=O)[C@H](CC(=O)NCc1ccccc1)C2` as the compound, how does the CPE inhibition read?
Answer: inactive: 2.1%

Question: With `CCN1C(=O)C(=O)N(CC(=O)N(C)CC(=O)Nc2ccccc2C(F)(F)F)C1=O` as the compound, how does the CPE inhibition read?
Answer: inconclusive: 23.5%

Question: With `N#C[C@@H]1[C@@H](c2ccccc2C2=CCCCC2)[C@@H](CO)N1C(=O)CN1CCOCC1` as the compound, how does the CPE inhibition read?
Answer: active: 30.3%

Question: With `CC(C)NC(=O)N1C[C@H]2[C@@H](c3ccccc31)[C@@H](CO)N2C(=O)c1ccccn1` as the compound, how does the CPE inhibition read?
Answer: active: 115%

Question: Which CPE inhibition does the source give for `COc1cc2[nH]c(=O)c(C(=O)NCCCN3CCOCC3)c(O)c2cc1OC` here?
Answer: inactive: 1.6%

Question: With `C[C@@H]1CN([C@H](C)CO)C(=O)c2cc(NS(C)(=O)=O)ccc2O[C@@H](C)CCCCO[C@@H]1CN(C)S(C)(=O)=O` as the compound, how does the CPE inhibition read?
Answer: inactive: -0.869%

Question: Which CPE inhibition does the source give for `COc1ccc(S(=O)(=O)Nc2ccc3c(c2)C(=O)N([C@@H](C)CO)C[C@H](C)[C@@H](CN(C)C(=O)Cc2ccccc2)OCCCC[C@H](C)O3)cc1` here?
Answer: active: 68.2%

Question: With `C[C@H]1CN([C@@H](C)CO)C(=O)c2cc(NS(=O)(=O)c3ccccc3)ccc2O[C@H]1CN(C)C(=O)Nc1ccc(F)cc1` as the compound, how does the CPE inhibition read?
Answer: inactive: -2.75%

Question: For `O=C(CSc1nnc(Nc2ccccc2F)s1)NC1CC1`, which CPE inhibition is on record?
Answer: inconclusive: 25.2%

Question: For `CC(C)C[C@@H]1Cc2[nH][nH]c(=O)c2[C@H](C)O1`, which CPE inhibition is on record?
Answer: inconclusive: 69.5%

Question: For `COc1ccc(NC(=O)Nc2ccc3c(c2)CC(=O)N([C@@H](C)CO)C[C@@H](C)[C@H](CN(C)S(=O)(=O)c2ccc(Cl)cc2)O3)cc1`, which CPE inhibition is on record?
Answer: inactive: 10.1%

Question: With `CO[C@H]1CN(C)C(=O)c2ccc(NC(C)=O)cc2OC[C@H](C)N(C(=O)c2ccc(F)cc2)C[C@H]1C` as the compound, how does the CPE inhibition read?
Answer: inactive: -7.54%

Question: With `CC(=O)NC(c1ccco1)c1cc(Cl)c2cccnc2c1O` (stereo not given) as the compound, how does the CPE inhibition read?
Answer: inconclusive: 21.7%

Question: For `CC(C)NC(=O)N(C)C[C@H]1Oc2ccc(NS(=O)(=O)c3ccc(F)cc3)cc2C(=O)N([C@H](C)CO)C[C@H]1C`, which CPE inhibition is on record?
Answer: inconclusive: 27.9%

Question: Which CPE inhibition does the source give for `COc1ccc(-c2ccccc2[C@H]2[C@@H](CO)N(C(=O)C3CCCC3)[C@H]2C#N)cc1` here?
Answer: inconclusive: 22.8%

Question: For `NS(=O)(=O)c1ccc(N/N=C/c2ccccn2)c([N+](=O)[O-])c1`, which CPE inhibition is on record?
Answer: inconclusive: 49.6%

Question: Which CPE inhibition does the source give for `COc1cc(-c2c(-c3ccc4c(c3)OCO4)noc2-c2ccsc2)ccc1F` here?
Answer: inactive: 15.8%

Question: For `COc1ccc(OC)c(S(=O)(=O)N2CCC(C(=O)N3CCN(c4ccc(F)cc4)CC3)CC2)c1`, which CPE inhibition is on record?
Answer: inconclusive: 24.5%

Question: With `O=C(C[C@@H]1C/C=C\CCC(=O)OC[C@H](Cc2ccccc2)NC1=O)N[C@@H](CO)Cc1ccccc1` as the compound, how does the CPE inhibition read?
Answer: inconclusive: 61.8%

Question: With `N#CC(CC(=O)c1ccc(Cl)cc1)c1ccccc1` (stereo not given) as the compound, how does the CPE inhibition read?
Answer: inactive: -11.7%

Question: For `COc1ccc2ccccc2c1-c1c(OC)ccc2ccccc12`, which CPE inhibition is on record?
Answer: active: 25.8%

Question: For `COc1ccc(S(=O)(=O)N(C)C[C@H]2Oc3c(cccc3N(C)C)C(=O)N([C@@H](C)CO)C[C@H]2C)cc1`, which CPE inhibition is on record?
Answer: inconclusive: 43.8%

Question: With `O=C(C1CC1)N1C[C@H]2[C@@H](c3ccccc31)[C@@H](CO)N2C(=O)c1ccccc1F` as the compound, how does the CPE inhibition read?
Answer: inconclusive: 24.7%

Question: With `COc1ccc(CN(C)C[C@H]2OCCCC[C@@H](C)Oc3ccc(NC(=O)C4CCCCC4)cc3C(=O)N([C@H](C)CO)C[C@@H]2C)cc1` as the compound, how does the CPE inhibition read?
Answer: inconclusive: 21.1%

Question: Which CPE inhibition does the source give for `CNC(=O)C[C@@H]1CC[C@@H]2[C@@H](COc3ccc(NS(=O)(=O)c4ccccc4C)cc3C(=O)N2C)O1` here?
Answer: inconclusive: 27.3%

Question: With `Cc1noc(C)c1NC(=O)Nc1ccc2c(c1)C(=O)N(C)[C@@H]1CC[C@H](CC(=O)N(C)C)O[C@H]1CO2` as the compound, how does the CPE inhibition read?
Answer: inconclusive: 37.6%

Question: Which CPE inhibition does the source give for `CNC(=S)Nc1ccc(N2CCN(c3ccc(C(F)(F)F)cn3)CC2)nc1` here?
Answer: inconclusive: 22.1%

Question: With `CO[C@H]1CN(C)C(=O)c2ccc(NC(=O)Nc3ccccc3F)cc2OC[C@H](C)N(C)C[C@H]1C` as the compound, how does the CPE inhibition read?
Answer: active: 33.2%

Question: Which CPE inhibition does the source give for `COc1cc(C(=O)NCCNc2nc3c(C)cccc3cc2C#N)cc(OC)c1OC` here?
Answer: inconclusive: 39.1%

Question: For `O=c1[nH]c(/C=C2\C=Nc3ccccc32)c(O)n1Cc1ccccc1F`, which CPE inhibition is on record?
Answer: inactive: -8.71%

Question: With `CO[C@@H](CN(C)C(=O)c1cc(Cl)cc(Cl)c1)[C@H](C)CN(C(=O)Nc1ccc(F)cc1)[C@@H](C)CO` as the compound, how does the CPE inhibition read?
Answer: active: 91.5%

Question: Which CPE inhibition does the source give for `COc1ccccc1C(=O)NCCC(=O)N1CCN(C(C)=O)CC1` here?
Answer: active: 49.8%

Question: With `Cc1ccc(S(=O)(=O)N(C)C[C@H]2Oc3ccc(NC(=O)CCC(F)(F)F)cc3C(=O)N([C@H](C)CO)C[C@@H]2C)cc1` as the compound, how does the CPE inhibition read?
Answer: active: 29.3%

Question: Which CPE inhibition does the source give for `NC(=O)c1ccsc1NC(=O)COC(=O)CSc1ccc(Cl)cc1` here?
Answer: inactive: 0.854%

Question: Which CPE inhibition does the source give for `Cc1cccc(C(=O)NCCNC(=O)c2cccc(C)c2)c1` here?
Answer: inactive: 4.75%

Question: Which CPE inhibition does the source give for `C[C@H](CO)N1C[C@H](C)[C@@H](CN(C)C(=O)C2CCOCC2)Oc2ncc(C3=CCCCC3)cc2C1=O` here?
Answer: active: 45.3%

Question: Which CPE inhibition does the source give for `CN(C)C(=O)C[C@@H]1C=C[C@@H](NC(=O)NC2CCCCC2)[C@H](CO)O1` here?
Answer: active: 72.7%

Question: Which CPE inhibition does the source give for `O=S(=O)(Nc1ccc(-n2cnnn2)cc1)c1cccc(F)c1` here?
Answer: inconclusive: 35.8%

Question: Which CPE inhibition does the source give for `C[C@@H]1CN([C@@H](C)CO)C(=O)c2cc(NS(=O)(=O)c3cccs3)ccc2O[C@@H](C)CCCCO[C@@H]1CN(C)S(=O)(=O)c1cn(C)cn1` here?
Answer: active: 33.6%
